PubChem BioAssay AID504467 (National Center for Advancing Translational Sciences (NCATS), 2011)
Screen size: about 330,000 compounds; about 7,700 (2.3%) were called active. Inconclusive results, whose numbers are uncertain, are shown with a selection of clear calls. Calls follow the shape of the dose curve; as a rule, active = well fitted inhibition curve with a large enough effect; inconclusive = small, poorly fitted or top-dose-only effect, or effect the other way; inactive = flat fitted curve, though single readings scatter. Potencies beside an inconclusive call are fits to weak or partial responses and may not hold up.

Test: qHTS screen for small molecules that inhibit ELG1-dependent DNA repair in human embryonic kidney (HEK293T) cells expressing luciferase-tagged ELG1; also: nearly all actives have a fitted effect of over 55% in size
Conditions: HEK293T ELG1-luciferase reporter, luminescence, 16 h, DNA damage induced by 5-fluorouridine; activity change, negative = inhibition: at 46.1 µM (top of the series)
In short: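 Step one: seed 2,000 cells per well. Step two: pin-transfer compound or DMSO alongside 5-fluorouridine. Step three: incubate 16 hr, 37 °C, 5% CO2. Step four: add ONE-Glo, wait 30 min, read luminescence.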
% is scaled to controls: 0 for no effect and ±100 for the full control effect; potency is read from the fitted curve at half-maximal effect.

Row | Structure (SMILES) | Potency | activity change, negative = inhibition
1 | CC(/C=N/NC(=O)c1ccco1)=C\c1ccccc1 | inconclusive: 3.26 µM [activator, partial curve] | 
2 | COc1cc(/C=C\C(=O)NCc2ccc3c(c2)cc(C)n3C)cc(OC)c1OC |  | inactive: -23.2%
3 | CCN1CCCC1CNC(=O)Cn1cc2c(n1)CCC(C)C2 (stereo unspecified) | inconclusive: 5.8 µM [inhibitor, partial curve, poor fit] | 
4 | CC1(C)Cc2ccccc2C(=NCC(=O)O)N1 |  | inactive: 0.211%
5 | CCn1nc(C(=O)Nc2nc3ccccc3[nH]2)c2ccccc2c1=O | inconclusive: 25.9 µM [inhibitor, single point] | 
6 | NC(=O)C1CCN(C(=O)c2ccc(NS(=O)(=O)c3ccc(Br)s3)cc2)CC1 |  | inactive: 9.84%
7 | Cc1cc(-c2ccc(C)c(S(=O)(=O)N3CCN(c4ccccn4)CC3)c2)on1 | inconclusive: 29.1 µM [inhibitor, partial curve, poor fit] | 
8 | COc1ccc(C)cc1NC(=O)CSc1ccc(-c2ccco2)nn1 |  | inactive: -11.4%
9 | C/C(=N\NC(=O)c1ccccc1O)c1ccc(Br)s1 | inconclusive: 1.46 µM [activator, partial curve, poor fit] | 
10 | O=C(O)C(Cc1cn[nH]n1)=NO |  | inactive: -5.77%
11 | O=C(Nc1nnc(CCc2ccccc2)s1)c1ccccc1F | inconclusive: 13 µM [activator, partial curve] | 
12 | COc1ncccc1-c1nnn(-c2ccc(F)cc2)n1 | inconclusive: 9.2 µM [activator, partial curve] | 
13 | O=C(Nc1ccc2oc(-c3ccccc3)nc2c1)c1cccs1 | inconclusive: 2.59 µM [activator, full curve] | 
14 | COc1ccc(CCNC(=O)C(=O)NCC2OCCN2S(=O)(=O)c2ccc(OC)c(C)c2)cc1 (stereo unspecified) | inconclusive: 14.6 µM [inhibitor, partial curve, poor fit] | 
15 | Cc1c(Cl)cccc1NC(=O)CCN1CCC(C(N)=O)CC1 |  | inactive: -2.95%
16 | CCCOc1ccc(/C=N/NC(=O)CSCc2ccc([N+](=O)[O-])cc2)cc1OCC | active: 23.1 µM | 
17 | O=C(/C=C/c1ccccc1)c1ccc2c(c1)OCO2 | inconclusive: 20.6 µM [activator, partial curve] | 
18 | Oc1c(CN2CCCCC2)cc(Br)c2cccnc12 | inconclusive: 14.6 µM [inhibitor, partial curve, poor fit] | 
19 | Cc1cccc(N2CCN(C(=O)c3ccc(CS(=O)Cc4cccc(Cl)c4)o3)CC2)c1C (stereo unspecified) | inconclusive: 23.1 µM [inhibitor, partial curve, poor fit] | 
20 | COc1cc(NC(=O)Cn2cnc3c(OCc4ccccc4)ncnc32)cc(OC)c1OC |  | inactive: -0.881%
21 | Nc1n[nH]c(N)c1N=Nc1ccc(F)cc1 | inconclusive: 18.3 µM [activator, single point] | 
22 | CCS(=O)(=O)c1nnnn1-c1ccccc1S(C)(=O)=O | active: 14.6 µM | 
23 | CC(C)(C)OC(=O)C[C@H]1C/C=C\C[C@H](CC(=O)N[C@H](CO)Cc2ccccc2)C(=O)N2CCC[C@H]2COC1=O |  | inactive: -6.95%
24 | O=C(CCS(=O)(=O)c1ccc(F)cc1)N1CCN(c2ccccc2)CC1 | inconclusive: 16.4 µM [activator, partial curve] | 
25 | CC(C)C(NC(=S)Nc1ccccc1)C(=O)O (stereo unspecified) |  | inactive: 9.28%
26 | O=C(OCc1ccccc1)N1CCOCCOCCN(C(=O)OCc2ccccc2)CCOCCOCC1 | active: 10 µM | 

Look-ups from the results shown:
Entry for O=C(/C=C/c1ccccc1)c1ccc2c(c1)OCO2 under Potency: inconclusive: 20.6 µM [activator, partial curve]
Entry for Oc1c(CN2CCCCC2)cc(Br)c2cccnc12 under Potency: inconclusive: 14.6 µM [inhibitor, partial curve, poor fit]

Continuation.

Row | Structure (SMILES) | Potency | activity change, negative = inhibition
27 | Cc1ccc(S(=O)(=O)NNC(=O)CCC(=O)Nc2ccccc2Cl)cc1 |  | inactive: 17.5%
28 | O=C(Cc1ccccc1)NCCC1=CCCCC1 | inconclusive: 13 µM [activator, single point] | 
29 | O=C(NN1CCOCC1)NC12CC3CC(CC(C3)C1)C2 | inconclusive: 29.1 µM [activator, single point] | 
30 | CC(OC(=O)c1cnccn1)C(=O)Nc1nc(-c2cccc([N+](=O)[O-])c2)cs1 (stereo unspecified) | inconclusive: 20.6 µM [activator, partial curve] | 
31 | CCCN(CC(=O)Nc1ccccc1C)C(=O)COC(=O)CSc1ccc([N+](=O)[O-])cc1 |  | inactive: 27.1%
32 | C=CCOc1ccccc1CNc1ccccc1C |  | inactive: 16.4%
33 | COCCCn1c(=O)c2ccccc2n(CC(=O)N2CCCc3ccccc32)c1=O |  | inactive: -5.43%
34 | CCN(CC)S(=O)(=O)c1cccc(C(=O)N[C@H](C(=O)NCc2ccccc2F)C(C)C)c1 | inconclusive: 25.9 µM [inhibitor, single point] | 
35 | CCOc1ccccc1NC(=O)Nc1ccccn1 |  | inactive: 3.2%
36 | CCOc1ccc(NC(=O)c2ccc(OCC3CCCO3)cc2)cc1S(=O)(=O)N(CC)CC (stereo unspecified) | inconclusive: 11.6 µM [inhibitor, partial curve, poor fit] | 
37 | N=C1C(c2nc(-c3ccc(Cl)cc3)cs2)=C(O)CN1NC(=O)c1ccc(O)cc1 | inconclusive: 18.3 µM [activator, single point] | 
38 | COc1ccc(NC(=O)CSCc2cc(=O)n3nc(C4CC4)sc3n2)cc1 | inconclusive: 32.6 µM [activator, partial curve, poor fit] | 
39 | CCc1ccc(OCc2nnc(SCC(=O)NC3CCCCC3)o2)cc1 |  | inactive: 0.861%
40 | CCOC(=O)c1c(C)[nH]c(C)c1S(=O)(=O)N(C)CC(=O)N(C)Cc1ccccc1 |  | inactive: 2.11%
41 | COc1ccc2nc(C)c(C(=O)NN)cc2c1 |  | inactive: -1.26%
42 | COc1ccc(C(=O)OCCCN(C)C)cc1OC |  | inactive: -2.71%
43 | COc1ccc(C2CC(c3c(-c4ccccc4)c4cc(Cl)ccc4[nH]c3=O)=NN2S(C)(=O)=O)cc1OC (stereo unspecified) | inconclusive: 6.51 µM [inhibitor, partial curve] | 
44 | CC(NC(=O)CN1C(=O)NC(Cc2ccccc2)(Cc2ccccc2)C1=O)C12CC3CC(CC(C3)C1)C2 (stereo unspecified) |  | inactive: -11.6%
45 | COC(=O)C1=C(C)NC(=S)NC1c1ccc(-c2cccc(Cl)c2)o1 (stereo unspecified) | inconclusive: 0.0065 µM [inhibitor, full curve, poor fit] | 
46 | CC(C)OC(=O)C(CC(=O)O)N1CCOCC1 (stereo unspecified) |  | inactive: 13%
47 | O=C(NCCNC(=O)c1ccccc1Br)c1ccccc1Br |  | inactive: -3.27%
48 | O=Cc1cn(CC(=O)Nc2ccc(F)cc2)c2ccccc12 | active: 3.66 µM | 
49 | CC1(C)CC(=O)C2=C(C1)N(c1ccccc1C#N)C(N)=C(C#N)C2c1cccs1 (stereo unspecified) |  | inactive: -9.66%
50 | CNC(=O)c1ccccc1NC(=O)c1cccc(S(=O)(=O)N2CCC(C)CC2)c1 | inconclusive: 25.9 µM [inhibitor, single point] | 
51 | COc1ccc(-n2c(N)c(C(=O)NCc3ccco3)c3nc4ccccc4nc32)cc1OC | active: 6.51 µM | 
52 | CCOc1ccc(NC(=S)N(CCOC)C2CCN(C(C)C)CC2)cc1 |  | inactive: -17%

Row | Structure (SMILES) | Potency | activity change, negative = inhibition
53 | CSc1ncc(Cl)c(C(=O)Nc2ccccc2C)n1 |  | inactive: -4.98%
54 | O=C(NCC1CCCO1)c1ccc(Cl)c(S(=O)(=O)N2CCCCC2)c1 (stereo unspecified) | inconclusive: 23.1 µM [inhibitor, partial curve, poor fit] | 
55 | C/C(=N/Nc1ccccc1[N+](=O)[O-])c1ccc(C)c([N+](=O)[O-])c1 |  | inactive: 18.9%
56 | Cc1noc(C)c1S(=O)(=O)Nc1ccc2c(c1)C(=O)N([C@H](C)CO)C[C@H](C)[C@@H](CN(C)Cc1ccc(C(=O)O)cc1)O2 | inconclusive: 23.1 µM [activator, single point] | 
57 | CC(C)(C)n1ncc2c(=O)n(Cc3ccc(Cl)cc3)cnc21 | active: 20.6 µM | 
58 | COc1cc(Cl)cc(/C=C/c2ccc3ccccc3n2)c1OC(C)=O | inconclusive: 2.59 µM [activator, partial curve] | 
59 | CC1(C)CC2CC(C)(CN2c2ncnc3ccccc23)C1 (stereo unspecified) | inconclusive: 5.17 µM [inhibitor, full curve, poor fit] | 
60 | CN(Cc1ccccc1O)CC1CCCN(CCc2ccc(Cl)cc2)C1 (stereo unspecified) |  | inactive: -11.2%
61 | Cc1cc(C)cc(N(CCC#N)C(=O)CSc2n[nH]c(N)n2)c1 | inconclusive: 20.6 µM [activator, single point] | 
62 | O=C(Nc1ccc(O)cc1C(=O)O)c1ccc(NC(=O)c2ccco2)cc1 | inconclusive: 29.1 µM [inhibitor, single point] | 
63 | O=C(c1ccc(Cn2cnnn2)cc1)N1CCCC(Nc2ccc(F)c(F)c2)C1 (stereo unspecified) | inconclusive: 3.66 µM [inhibitor, partial curve, poor fit] | 
64 | Cc1ccc(S(=O)(=O)NNC(=S)NCCc2ccccc2)cc1 |  | inactive: -0.896%
65 | Cc1ccc(CCNS(=O)(=O)c2ccc3c(c2)N(C)CCO3)cc1 |  | inactive: 8.35%
66 | CCOC(=O)c1sc2ccc(S(=O)(=O)N3CCCCC3)cc2c1N | inconclusive: 32.6 µM [inhibitor, single point] | 
67 | C#Cc1ccc([C@@H]2C=C(C(=O)NCc3nc4ccccc4[nH]3)O[C@H](OCC)[C@H]2CCCO)cc1 |  | inactive: -14.5%
68 | Cc1ccc(CN2CCC(C(=O)Nc3cccc(-c4cccc(F)c4)c3)CC2)o1 |  | inactive: -15.9%
69 | Cc1ccc(C(=O)N2c3ccccc3OCC2C)cc1 (stereo unspecified) |  | inactive: -17.7%
70 | COc1ccccc1N1CCN(C(C)C(=O)Nc2ccc(S(=O)(=O)N3CCOCC3)cc2)CC1 (stereo unspecified) |  | inactive: 3%
71 | Cc1ccccc1NC(=O)C(C)c1cccc(C(=O)c2ccccc2)c1 (stereo unspecified) |  | inactive: -8.14%
72 | COc1cccc(/C=N/NC(=O)c2cc(-c3cccn3C)n[nH]2)c1O | inconclusive: 3.26 µM [inhibitor, full curve] | 
73 | Cc1ccc(S(=O)(=O)NC(C)CCc2ccccc2)cc1C(N)=O (stereo unspecified) | inconclusive: 11.2 µM [inhibitor, partial curve, poor fit] | 
74 | Cn1cccc1C(=O)C(=O)Nc1cccc(Cl)c1Cl | inconclusive: 9.2 µM [activator, partial curve] | 
75 | CCOc1ccccc1-c1nnc(SCC(=O)Nc2ccccc2)o1 |  | inactive: -7.23%
76 | COC(=O)c1cccc(C23CC4(C2)[C@H](CN(Cc2cccnc2)[C@@H]4c2ccccc2)C3c2ccc(C(F)(F)F)cc2)c1 (stereo partly specified) | inconclusive: 29.1 µM [activator, single point] | 

Reformatted tab-delimited: part of the list above.
Row	Structure (SMILES)	Potency	activity change, negative = inhibition
13	O=C(Nc1ccc2oc(-c3ccccc3)nc2c1)c1cccs1	inconclusive: 2.59 µM [activator, full curve]	
14	COc1ccc(CCNC(=O)C(=O)NCC2OCCN2S(=O)(=O)c2ccc(OC)c(C)c2)cc1 (stereo unspecified)	inconclusive: 14.6 µM [inhibitor, partial curve, poor fit]	
